No constants are given. Whether binding was seen depends on the method and setting. Some entries that bind do so weakly or less than the wild type.
Target: T1, Native pentameric human C-reactive protein (Scripps) (human), P02741
T1 chain: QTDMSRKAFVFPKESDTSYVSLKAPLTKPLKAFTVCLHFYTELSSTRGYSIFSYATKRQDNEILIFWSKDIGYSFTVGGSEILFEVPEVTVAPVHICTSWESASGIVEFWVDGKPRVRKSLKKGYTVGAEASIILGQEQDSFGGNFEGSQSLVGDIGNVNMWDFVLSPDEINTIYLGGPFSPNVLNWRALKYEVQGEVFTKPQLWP
Assay: SEC; urea dissociation in the presence of calcium (5 mM); results not shown; both purified
Conditions: remark: other sources report otherwise

binding: binds
B1: Native pentameric human C-reactive protein (Scripps), P02741 19-224 (natural protein)
chain: T1 chain

From paper PMC7010908
